Results are given in words; binding and its absence hold for the method and conditions named. Binding seen in cells or lysates may run through a third protein. Some entries that bind do so weakly or less than the wild type.
How the values were obtained:
[1] = molecular target: TLR4 (mouse (endogenous in BMDMs of C57BL/6 mice)) (UniProt Q9QUK6); assay: co-IP; endogenous proteins in lysate (modified RIPA buffer) of mouse BMDMs treated with LA1 (20 μM) for 1 or 2 h; immunoprecipitation with anti-CD11b antibody, anti-TLR4 antibody or negative control IgG, Protein A agarose beads, washed three times with cold PBS; western blot
[2] = molecular target: CD11b (mouse (endogenous in BMDMs of C57BL/6 mice)) (UniProt P05555); assay: as above

By UniProt entry, the sequences of proteins in these tests, tags left out. Residues count along the entry.
UniProt Q9QUK6, residues 26-835: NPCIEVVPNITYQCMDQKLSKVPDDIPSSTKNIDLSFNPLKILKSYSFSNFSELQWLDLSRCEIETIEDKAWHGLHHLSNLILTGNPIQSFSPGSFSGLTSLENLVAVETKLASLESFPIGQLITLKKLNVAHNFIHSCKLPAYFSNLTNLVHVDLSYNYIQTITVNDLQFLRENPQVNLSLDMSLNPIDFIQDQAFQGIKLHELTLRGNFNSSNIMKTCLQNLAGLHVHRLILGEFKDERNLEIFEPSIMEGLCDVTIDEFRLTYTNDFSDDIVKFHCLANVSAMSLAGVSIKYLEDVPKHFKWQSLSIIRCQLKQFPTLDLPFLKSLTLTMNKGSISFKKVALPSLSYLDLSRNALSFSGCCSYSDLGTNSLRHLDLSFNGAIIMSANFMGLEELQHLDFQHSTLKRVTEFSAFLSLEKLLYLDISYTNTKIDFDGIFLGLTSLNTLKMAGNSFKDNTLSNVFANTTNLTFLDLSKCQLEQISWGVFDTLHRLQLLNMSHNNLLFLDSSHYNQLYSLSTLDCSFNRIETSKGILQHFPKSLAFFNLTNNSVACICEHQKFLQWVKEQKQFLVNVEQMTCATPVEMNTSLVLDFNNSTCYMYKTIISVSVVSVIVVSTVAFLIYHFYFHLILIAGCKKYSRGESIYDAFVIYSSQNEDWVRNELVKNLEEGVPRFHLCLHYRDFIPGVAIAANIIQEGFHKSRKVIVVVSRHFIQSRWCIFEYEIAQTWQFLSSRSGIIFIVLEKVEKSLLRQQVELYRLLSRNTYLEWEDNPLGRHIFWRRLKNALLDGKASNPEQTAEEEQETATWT
UniProt P05555, residues 17-1153: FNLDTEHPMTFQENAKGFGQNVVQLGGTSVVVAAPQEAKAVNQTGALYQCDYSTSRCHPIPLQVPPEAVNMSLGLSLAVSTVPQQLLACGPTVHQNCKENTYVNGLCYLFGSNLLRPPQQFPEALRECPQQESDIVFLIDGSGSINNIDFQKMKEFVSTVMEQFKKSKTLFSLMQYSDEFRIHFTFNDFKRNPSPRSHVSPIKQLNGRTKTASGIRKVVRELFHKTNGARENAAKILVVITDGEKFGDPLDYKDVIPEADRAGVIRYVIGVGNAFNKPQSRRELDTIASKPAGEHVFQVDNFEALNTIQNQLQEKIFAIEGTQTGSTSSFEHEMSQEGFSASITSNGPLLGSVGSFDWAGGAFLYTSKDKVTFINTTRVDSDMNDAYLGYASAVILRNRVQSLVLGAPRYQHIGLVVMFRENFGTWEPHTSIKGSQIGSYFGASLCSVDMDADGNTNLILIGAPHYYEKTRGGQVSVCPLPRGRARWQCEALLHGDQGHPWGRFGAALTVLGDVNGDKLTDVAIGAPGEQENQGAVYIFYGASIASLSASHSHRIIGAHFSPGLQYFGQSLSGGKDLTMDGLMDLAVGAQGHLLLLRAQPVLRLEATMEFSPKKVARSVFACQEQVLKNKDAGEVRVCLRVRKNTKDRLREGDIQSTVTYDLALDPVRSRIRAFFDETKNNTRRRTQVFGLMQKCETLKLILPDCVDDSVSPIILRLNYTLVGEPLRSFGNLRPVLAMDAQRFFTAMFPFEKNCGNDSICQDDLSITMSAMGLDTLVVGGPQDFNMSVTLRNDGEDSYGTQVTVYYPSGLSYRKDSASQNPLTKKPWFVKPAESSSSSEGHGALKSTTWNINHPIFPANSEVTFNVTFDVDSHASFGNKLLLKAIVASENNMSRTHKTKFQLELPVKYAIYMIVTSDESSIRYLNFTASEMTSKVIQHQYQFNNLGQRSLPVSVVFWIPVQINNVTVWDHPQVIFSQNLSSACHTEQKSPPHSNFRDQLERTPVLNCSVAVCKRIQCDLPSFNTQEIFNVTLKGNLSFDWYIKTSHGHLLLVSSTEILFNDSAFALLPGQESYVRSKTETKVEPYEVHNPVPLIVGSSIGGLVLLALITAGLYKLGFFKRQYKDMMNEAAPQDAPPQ

Substance: CD11b (from UniProt P05555 17-1153) (receptor)
- binding [1]: binds

Substance: TLR4 (from UniProt Q9QUK6 26-835) (receptor)
- binding [2]: binds
